The values below come from article PMC11605073.

These are yes or no findings as the source states them, for the method shown. In cells and extracts the contact can be indirect. Some results given as binding are weak or reduced against the parent protein; the word gives no strength.

This experiment concerns the target T1, ASCL1 (human (endogenous in patient-derived GBM xenograft)) (UniProt P50553).
T1 sequence: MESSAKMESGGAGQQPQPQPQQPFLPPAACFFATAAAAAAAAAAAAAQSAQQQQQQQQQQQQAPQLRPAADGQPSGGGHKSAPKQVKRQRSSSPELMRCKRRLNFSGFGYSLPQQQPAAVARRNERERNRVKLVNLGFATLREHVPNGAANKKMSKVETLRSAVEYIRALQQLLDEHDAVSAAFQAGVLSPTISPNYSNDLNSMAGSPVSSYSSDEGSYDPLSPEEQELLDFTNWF
In words: co-IP; PDOX-GBM tumor, nuclear extracts in RIPA buffer, pre-cleared with Dynabeads Protein G; IP with guinea pig anti-ASCL1 for 2 h, Dynabeads Protein G at 4 °C overnight; blot with guinea pig anti-ASCL1 and rabbit anti-OLIG2.

B1: OLIG2 (protein, UniProt Q13516 1-323)
chain: MDSDASLVSSRPSSPEPDDLFLPARSKGSSGSAFTGGTVSSSTPSDCPPELSAELRGAMGSAGAHPGDKLGGSGFKSSSSSTSSSTSSAAASSTKKDKKQMTEPELQQLRLKINSRERKRMHDLNIAMDGLREVMPYAHGPSVRKLSKIATLLLARNYILMLTNSLEEMKRLVSEIYGGHHAGFHPSACGGLAHSAPLPAATAHPAAAAHAAHHPAVHHPILPPAAAAAAAAAAAAAVSSASLPGSGLPSVGSIRPPHGLLKSPSAAAAAPLGGGGGGSGASGGFQHWGGMPCPCSMCQVPPPHHHVSAMGAGSLPRLTSDAK
For the molecule B1, the binding result is given as “binds”.
